{"source": "PubChem BioAssay AID504744 (Drosophila RNAi Screening Center, 2011)", "test": "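Identify dsRNAs that increase or decrease phospho-dAkt after insulin treatment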 (primary screen)", "system": "Drosophila Kc167 cells", "reagents": "long dsRNA against Drosophila genes, 250 ng dsRNA per well of a 384-well plate", "time to read-out": "3 days of knock-down, then overnight serum-free starvation before stimulation", "treatment": "bovine insulin at 387 nM for 10 minutes after 12 h without serum", "read-out": "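In-cell antibody fluorescence for phospho-dAkt in each well over DNA-dye signal, with log2 residuals expressed as z-scores adjusted for cell count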", "hit rule": "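Hit in the insulin screen when the two-replicate mean z-score is more extreme than plus or minus 2.5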", "note": "The deposit covers about 23,000 reagents; this is an unselected part of those with a known target gene and a result. Of all reagents, 98 (0.43%) were called active. 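Only hit calls are given; the phospho-dAkt signals, z-scores and hit direction were not deposited.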 Names joined by + are all predicted targets of the reagent."}
{"Target gene":"Spn42Dd","amplicon":"DRSC05024","activity call":"inactive"}
{"Target gene":"Spn42Dd","amplicon":"DRSC22060","activity call":"inactive"}
{"Target gene":"CG8100","amplicon":"DRSC10961","activity call":"inactive"}
{"Target gene":"CG11656","amplicon":"DRSC14338","activity call":"inactive"}
{"Target gene":"Pkd2","amplicon":"DRSC02962","activity call":"inactive"}
{"Target gene":"CG12926","amplicon":"DRSC06239","activity call":"inactive"}
{"Target gene":"CG12926","amplicon":"DRSC21930","activity call":"inactive"}
{"Target gene":"CG46441","amplicon":"DRSC15561","activity call":"inactive"}
{"Target gene":"Arpc3B","amplicon":"DRSC20126","activity call":"inactive"}
{"Target gene":"REPTOR-BP","amplicon":"DRSC02683","activity call":"inactive"}
{"Target gene":"sturkopf","amplicon":"DRSC08637","activity call":"inactive"}
{"Target gene":"Pur-alpha","amplicon":"DRSC17166","activity call":"inactive"}
{"Target gene":"hfp","amplicon":"DRSC08731","activity call":"inactive"}
{"Target gene":"hfp","amplicon":"DRSC08732","activity call":"inactive"}
{"Target gene":"hfp","amplicon":"DRSC22408","activity call":"inactive"}
{"Target gene":"Cyp313a2","amplicon":"DRSC16625","activity call":"inactive"}
{"Target gene":"RhoGEF3","amplicon":"DRSC08351","activity call":"inactive"}
{"Target gene":"RhoGEF3","amplicon":"DRSC08352","activity call":"inactive"}
{"Target gene":"Cyp4ac1","amplicon":"DRSC03302","activity call":"inactive"}
{"Target gene":"lncRNA:CR32657","amplicon":"DRSC19403","activity call":"inactive"}
{"Target gene":"Cpr67Fb","amplicon":"DRSC10314","activity call":"inactive"}
{"Target gene":"CG4998","amplicon":"DRSC10466","activity call":"inactive"}
{"Target gene":"CG4998","amplicon":"DRSC22911","activity call":"inactive"}
{"Target gene":"frma","amplicon":"DRSC18297","activity call":"inactive"}
{"Target gene":"CR30374","amplicon":"DRSC05080","activity call":"inactive"}
{"Target gene":"SF1","amplicon":"DRSC16844","activity call":"inactive"}
{"Target gene":"CG17760","amplicon":"DRSC06694","activity call":"inactive"}
{"Target gene":"Sec13","amplicon":"DRSC14144","activity call":"active"}
{"Target gene":"CG14744","amplicon":"DRSC06480","activity call":"inactive"}
{"Target gene":"ctp","amplicon":"DRSC18758","activity call":"inactive"}
{"Target gene":"CG14957","amplicon":"DRSC08416","activity call":"inactive"}
{"Target gene":"CG14684","amplicon":"DRSC14907","activity call":"inactive"}
{"Target gene":"CG9760","amplicon":"DRSC11101","activity call":"inactive"}
{"Target gene":"ETH","amplicon":"DRSC04612","activity call":"inactive"}
{"Target gene":"Cyp6g1","amplicon":"DRSC07386","activity call":"inactive"}
{"Target gene":"CG10492","amplicon":"DRSC02064","activity call":"inactive"}
{"Target gene":"AnxB9","amplicon":"DRSC14111","activity call":"inactive"}
{"Target gene":"Cad89D","amplicon":"DRSC15022","activity call":"inactive"}
{"Target gene":"Prosap","amplicon":"DRSC06382","activity call":"inactive"}
{"Target gene":"Prosap","amplicon":"DRSC07081","activity call":"inactive"}
{"Target gene":"CG15117","amplicon":"DRSC06539","activity call":"inactive"}
{"Target gene":"CG8292","amplicon":"DRSC03082","activity call":"inactive"}
{"Target gene":"CG30373","amplicon":"DRSC05081","activity call":"inactive"}
{"Target gene":"msl-1","amplicon":"DRSC03573","activity call":"inactive"}
{"Target gene":"SkpA","amplicon":"DRSC18833","activity call":"inactive"}
{"Target gene":"Nepl15","amplicon":"DRSC15630","activity call":"inactive"}
{"Target gene":"Cka","amplicon":"DRSC03476","activity call":"inactive"}
{"Target gene":"Cka","amplicon":"DRSC22858","activity call":"inactive"}
{"Target gene":"Tpr2","amplicon":"DRSC03461","activity call":"inactive"}
{"Target gene":"CG12984","amplicon":"DRSC11693","activity call":"inactive"}
{"Target gene":"CG7453","amplicon":"DRSC20046","activity call":"inactive"}
{"Target gene":"rols","amplicon":"DRSC09873","activity call":"inactive"}
{"Target gene":"rols","amplicon":"DRSC10254","activity call":"inactive"}
{"Target gene":"rols","amplicon":"DRSC10536","activity call":"inactive"}
{"Target gene":"LysD + LysB + LysC (retired record)","amplicon":"DRSC21249","activity call":"inactive"}
{"Target gene":"CG10321","amplicon":"DRSC04061","activity call":"inactive"}
{"Target gene":"ND-42","amplicon":"DRSC16754","activity call":"inactive"}
{"Target gene":"Vti1b","amplicon":"DRSC16283","activity call":"inactive"}
{"Target gene":"Vti1b","amplicon":"DRSC16284","activity call":"inactive"}
{"Target gene":"Drat","amplicon":"DRSC06600","activity call":"inactive"}
{"Target gene":"CG12826","amplicon":"DRSC06175","activity call":"inactive"}
{"Target gene":"Jon66Cii","amplicon":"DRSC10778","activity call":"inactive"}
{"Target gene":"SrpRalpha","amplicon":"DRSC20251","activity call":"inactive"}
{"Target gene":"spz6","amplicon":"DRSC04533","activity call":"inactive"}
{"Target gene":"h-cup","amplicon":"DRSC15973","activity call":"inactive"}
{"Target gene":"qkr54B","amplicon":"DRSC07670","activity call":"inactive"}
{"Target gene":"MESK2 + CG10494","amplicon":"DRSC04259","activity call":"inactive"}
{"Target gene":"Calr","amplicon":"DRSC16614","activity call":"inactive"}
{"Target gene":"Fcp3C","amplicon":"DRSC18665","activity call":"inactive"}
{"Target gene":"kune","amplicon":"DRSC04860","activity call":"inactive"}
{"Target gene":"CG17224","amplicon":"DRSC00489","activity call":"inactive"}
{"Target gene":"RpL36","amplicon":"DRSC18708","activity call":"inactive"}
{"Target gene":"Spn28Dc","amplicon":"DRSC03029","activity call":"inactive"}

Part of the list above, set out differently.
ETH [DRSC04612]
- activity call: inactive

Cyp6g1 [DRSC07386]
- activity call: inactive

CG10492 [DRSC02064]
- activity call: inactive

AnxB9 [DRSC14111]
- activity call: inactive

Cad89D [DRSC15022]
- activity call: inactive

Prosap [DRSC06382]
- activity call: inactive

Prosap [DRSC07081]
- activity call: inactive

CG15117 [DRSC06539]
- activity call: inactive

CG8292 [DRSC03082]
- activity call: inactive

CG30373 [DRSC05081]
- activity call: inactive

msl-1 [DRSC03573]
- activity call: inactive
